{"source": "patent US6177557", "key": {"thrombin (alpha) (human) [1]": {"system": "thrombin (alpha) (human)", "test": "filter binding", "details": "2'-NH2 pyrimidines, significant drop in binding versus unmodified RNA, purified native protein, protein details: Sigma, Enzyme Research Laboratories, label: …"}, "[2]": {"target": "basic fibroblast growth factor (bFGF) (UniProt P09038)", "test": "competition with a labelled probe", "details": "purified recombinant protein, dose not given here"}, "thrombin (alpha) (human) [3]": {"system": "thrombin (alpha) (human)", "test": "inhibition of the protein", "details": "inhibits clotting; purified native protein; protein details: Sigma, Enzyme Research Laboratories; single-stranded DNA; variant of 60-18; dose not given here"}, "[4]": {"target": "basic fibroblast growth factor (bFGF) (UniProt P09038)", "test": "activity in cells", "details": "2'-NH2 pyrimidines; reduced bFGF-induced rat corneal vascular ingrowth (day 14 score 900 vs 1528); purified recombinant protein; dose not given here"}}, "note": "For some of these results: Weaker means in comparison with the reference protein, sequence or condition of that experiment. For some of these results: For at least one entry, the source does not settle the construct or the ends of the probe.", "data": [{"sequence": "AGAUGCCUGUCGAGCAUGCUGCAUCCGGAUCGAAGUUAGUAGGCCGAGGUGGUAGCUAAACAGCUUUGUCGACGGG [2'-NH2 RNA 16]", "values": [{"measurement": "binding result", "setting": "thrombin (alpha) (human) [1]; variant of thrombin Class I RNA 16", "result": "binds more weakly"}]}, {"sequence": "AGAUGCCUGUCGAGCAUGCUGGUGCGGCUUUGGGCGCCGUGCUUGACGUAGCUAAACAGCUUUGUCGACGGG [2'-NH2 RNA 27]", "values": [{"measurement": "binding result", "setting": "thrombin (alpha) (human) [1]; variant of thrombin Class II RNA 27", "result": "binds more weakly"}]}, {"sequence": "AGGCCAGGGCTATGCAAATCGCGGCGCCTATGGCC [D12t2]", "values": [{"measurement": "functional effect of the aptamer", "setting": "[2]; inhibits low- and high-affinity receptor binding, nanomolar range, single-stranded DNA, variant of D12", "result": "active"}]}, {"sequence": "CAGTCCGTGGTAGGGCAGGTTGGGGTGACTTCGTGGAA [60-18(38)]", "values": [{"measurement": "functional effect of the aptamer", "setting": "thrombin (alpha) (human) [3]", "result": "active"}]}, {"sequence": "CGAGGAGCTTTAGCGCCACAGGTT [m234t2]", "values": [{"measurement": "functional effect of the aptamer", "setting": "[2]; inhibits low- and high-affinity receptor binding, nanomolar range, single-stranded DNA, variant of m234", "result": "active"}]}, {"sequence": "GCGGGGCTACGTACCGGGGCTTTGTAAAACCCCGC [M225t3]", "values": [{"measurement": "functional effect of the aptamer", "setting": "[2]; inhibits low- and high-affinity receptor binding, nanomolar range, single-stranded DNA, variant of M225", "result": "active"}]}, {"sequence": "GCGGGGCTATGTAAATTACTGCTGTACTACGCATC [M19t2]", "values": [{"measurement": "functional effect of the aptamer", "setting": "[2]; inhibits low- and high-affinity receptor binding, nanomolar range, single-stranded DNA, variant of M19", "result": "active"}]}, {"sequence": "GCGGGGCTCTGCAAAGGACACAGGTCCTACGCATCAG [M235t2]", "values": [{"measurement": "functional effect of the aptamer", "setting": "[2]; inhibits low- and high-affinity receptor binding, nanomolar range, single-stranded DNA, variant of M235", "result": "active"}]}, {"sequence": "GGGAGACAAGAAUAACGCUCAAGUAGACUAAUGUGUGGAAGACAGCGGGUGGUUCGACAGGAGGCUCACAACAGGC [2'-NH2 21A]", "values": [{"measurement": "functional effect of the aptamer", "setting": "[4]", "result": "active"}]}, {"sequence": "GGUGUGUGGAAGACAGCGGGUGGUUC [2'-NH2 21A-t]", "values": [{"measurement": "functional effect of the aptamer", "setting": "[2]; 2'-NH2 pyrimidines, most effective inhibitor of bFGF receptor binding, variant of 2'-NH2 21A", "result": "active"}]}]}
